One series can be described thus: Release of therapeutic agent from loaded acrylate lenses over 7 days (HPLC). The note with it: ACRYSOFT II acrylate lens soaked 90 minutes in 3 mg/ml acetone drug solution; 0.5 ml water, 37° C., medium replaced every 24 hours; total after 7 days.
The molecule `O=C1O[C@H]([C@@H](O)CO)C(O)=C1O` [Ascorbic Acid] gave a 7 days release of 0.0 µg.
Same read-out and setting: the result for `CC(=O)Oc1ccccc1C(=O)O` [Aspirin] reads 0.0 µg.
On the same count and under the same terms, the figure for `COc1cc2c(c(OC)c1OC)-c1ccc(OC)c(=O)cc1[C@@H](NC(C)=O)CC2` [Colchicine] is 0.1 µg; for `O=C(c1ccccc1)c1ccc2n1CCC2C(=O)O` (stereo not shown) [Ketorolac] it is 0.3 µg; for `NC(=O)Cc1cccc(C(=O)c2ccccc2)c1N` [Nepafenac] it is 5.9 µg.

Another series in a line: Drug loading of A1 and A2 discs with nepafenac or diclofenac sodium. The note with it: 2.5 mg/mL drug solution, 4 hours soak.
`O=C(O)Cc1ccccc1Nc1c(Cl)cccc1Cl` [Diclofenac Sodium]: the “amount of drug picked up by A1 and A2 materials” value was “limited”.
On the same count and under the same terms, the entry for `NC(=O)Cc1cccc(C(=O)c2ccccc2)c1N` [Nepafenac] is “high amount”.

For the origin of these results see patent publication US9962334B2, “Ophthalmic device having therapeutic agent delivery capability and method of forming same” (Novartis AG, priority 2008, dated 2018).
